Source: patent US4396606A, “Novel polypeptide analgesics” (Addiction Research Foundation, priority 1979, dated 1983)
Part of at least one peptide drawing is inferred or uncertain, most often the ends. Residues, ends and D or L forms follow the SMILES beside them.

How the values were obtained:
[1] = tested on: guinea pig ileum myenteric plexus-longitudinal muscle preparation; test: guinea pig ileum myenteric plexus-longitudinal muscle preparation bioassay; type: cell-based; conditions: inhibition of electrically stimulated twitch; geometric mean of several muscle strips
Description: Starting material was 100 g MSH concentrate, the second oxycellulose adsorbate in commercial ACTH production from procine pituitary glands (Schally et al (1962) Endocrinology 71, 164). The initial steps, with 25 g batches, have been described in Lowney et al (1979) Life Sci. 24, 2377: extraction and back-extraction with butanol; separation from β-endorphin on Bio-Gel P6; preparative reversed-phase HPLC on C18 columns, first with a methanol gradient in trifluoroacetic acid (TFA), then with an acetonitrile gradient in Tris buffer at neutrality, followed by elution of the active material with TFA. Every step was monitored by assay on the guinea pig ileum myenteric plexus-longitudinal muscle preparation. Kosterlitz & Waterfled (1975) Ann. Rev. Pharmacol. 15, 29; Schulz & Goldstein (1973) Brit. J. Pharmacol. 48, 655.
The guinea pig ileum myenteric plexus-longitudinal muscle preparation was used as described in Kosterlitz et al, supra, and Schulz & Goldstein, supra. […] Geometric means of IC50 values from several muscle strips were obtained, with standard errors in log units. Kd values for naloxone as an antagonist were determined from the ratio of IC50 values in the presence and absence of a fixed naloxone concentration. The mouse vas deferens was used as described in Hughes at al (1975) Brit. J. Pharmacol. 53, 371. IC50 and naloxone Kd values were determined as above. […]

[2] = tested on: antiserum to dynorphin (1-13)-thyroglobulin conjugate; test: dynorphin radioimmunoassay; type: binding, rabbit; conditions: fragment substituted for dynorphin
Description: The subject dynorphin was used for the development of immunoassays, illustrated particularly by a radioimmunoassay. For carrying out the immunoassay, it is necessary to prepare antigens which specifically recognize the oligopeptide, in this case dynorphin. To prepare antigen conjugates, thyroglobulin was conjugated to synthetic dynorphin (1-13). The procedure for preparing the antigen conjugate, injecting the antigen conjugate into animals and isolating the antisera is described as follows.
Synthetic dynorphin (1-13) (3.25 μmoles, 5.2 mg) was dissolved in 2 ml of 100 mM sodium phosphate buffer at neutrality. To the mixture was added with agitation 10^5 cpm of ^125 I-dynorphin to serve as a tracer. After addition of the tracer, 26 mg of thyroglobulin (bovine type 1, Sigma) was added and the mixture cooled in an ice-bath after the thyroglobulin dissolved. […]
Based on the coupling efficiency calculated from the cpm of the dialysis bag residue, after lyophilizing, sufficient of the conjugate was employed to provide 50-100 μg of coupled oligopeptide per rabbit. […]
The procedure for the assay was as follows: All solutions were in ice at the outset and all operations were carried out in ice. […] To a 13×100 mm borosilicate glass tube was transferred 850 μl of the supernatant and the tube counted for 5 min in a gamma counter.

Compound	IC50 [1]	cross reactivity with dynorphin in the radioimmunoassay [2]
CC[C@H](C)[C@H](NC(=O)[C@H](CCCNC(=N)N)NC(=O)[C@H](CCCNC(=N)N)NC(=O)CNC(=O)[C@H](CC(C)C)NC(=O)[C@H](Cc1ccccc1)NC(=O)CNC(=O)CNC(=O)[C@@H](N)Cc1ccc(O)cc1)C(=O)N[C@@H](CCCNC(=N)N)C(=O)N1CCC[C@H]1C(=O)N[C@@H](CCCCN)C(=O)N[C@@H](CC(C)C)C(=O)N[C@@H](CCCCN)C(=O)O [RS-2] (H-YGGFLGRRIRPKLK-OH)	4.8 nM	–
CC[C@H](C)[C@H](NC(=O)[C@H](CCCNC(=N)N)NC(=O)[C@@H](N)CCCNC(=N)N)C(=O)N[C@@H](CCCNC(=N)N)C(=O)N1CCC[C@H]1C(=O)N[C@@H](CCCCN)C(=O)N[C@@H](CC(C)C)C(=O)N[C@@H](CCCCN)C(=O)O [dynorphin (6-13), reference compound] (H-RRIRPKLK-OH)	–	no evidence of any cross reactivity
CC[C@H](C)[C@H](NC(=O)[C@H](CCCNC(=N)N)NC(=O)[C@H](CCCNC(=N)N)NC(C)=O)C(=O)N[C@@H](CCCNC(=N)N)C(=O)N1CCC[C@H]1C(=O)N[C@@H](CCCCN)C(=O)N[C@@H](CC(C)C)C(=O)N[C@@H](CCCCN)C(=O)O [N-acetyl dynorphin (6-13), reference compound] (Ac-RRIRPKLK-OH)	–	no evidence of any cross reactivity
CC[C@H](C)[C@H](NC(=O)[C@H](CCCNC(=N)N)NC(=O)[C@H](CC(C)C)NC(=O)[C@H](Cc1ccccc1)NC(=O)CNC(=O)CNC(=O)[C@@H](N)Cc1ccc(O)cc1)C(=O)N[C@@H](CCCNC(=N)N)C(=O)N1CCC[C@H]1C(=O)N[C@@H](CCCCN)C(=O)N[C@@H](CC(C)C)C(=O)N[C@@H](CCCCN)C(=O)O [RS-1, des-arg^6-dynorphin-(1-13)] (H-YGGFLRIRPKLK-OH)	7.5 nM	–
